Reference: PMC11597096

The chains behind the UniProt entries cited, without tags or fusion partners. Residues count along the entry.
UniProt P09874, whole entry: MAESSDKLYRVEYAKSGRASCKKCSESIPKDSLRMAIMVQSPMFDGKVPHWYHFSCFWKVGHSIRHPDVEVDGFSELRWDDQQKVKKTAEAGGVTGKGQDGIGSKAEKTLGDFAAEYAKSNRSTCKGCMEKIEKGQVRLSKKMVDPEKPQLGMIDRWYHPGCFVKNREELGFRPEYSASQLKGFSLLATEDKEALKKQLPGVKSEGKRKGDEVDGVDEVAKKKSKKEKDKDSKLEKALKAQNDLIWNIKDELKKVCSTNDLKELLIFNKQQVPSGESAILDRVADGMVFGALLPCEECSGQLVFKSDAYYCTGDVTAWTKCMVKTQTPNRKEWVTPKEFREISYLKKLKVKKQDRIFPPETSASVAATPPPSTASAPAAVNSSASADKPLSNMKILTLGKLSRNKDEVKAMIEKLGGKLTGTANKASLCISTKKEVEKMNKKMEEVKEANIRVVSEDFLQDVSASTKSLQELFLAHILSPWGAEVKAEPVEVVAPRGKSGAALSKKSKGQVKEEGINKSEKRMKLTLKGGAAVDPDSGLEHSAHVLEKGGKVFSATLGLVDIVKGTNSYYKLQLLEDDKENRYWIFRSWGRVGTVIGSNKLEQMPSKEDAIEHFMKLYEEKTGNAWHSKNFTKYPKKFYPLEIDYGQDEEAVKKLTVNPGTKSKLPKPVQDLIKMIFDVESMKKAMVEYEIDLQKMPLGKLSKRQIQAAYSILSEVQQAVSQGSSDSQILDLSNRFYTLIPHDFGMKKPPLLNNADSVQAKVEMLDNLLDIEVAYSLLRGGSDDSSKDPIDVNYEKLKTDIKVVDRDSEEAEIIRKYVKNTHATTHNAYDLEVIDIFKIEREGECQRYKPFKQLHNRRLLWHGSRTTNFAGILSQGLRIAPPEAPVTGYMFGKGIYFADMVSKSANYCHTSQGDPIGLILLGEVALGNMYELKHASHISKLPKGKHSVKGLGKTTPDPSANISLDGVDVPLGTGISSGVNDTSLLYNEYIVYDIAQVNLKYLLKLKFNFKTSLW
UniProt P09874, 2-1014: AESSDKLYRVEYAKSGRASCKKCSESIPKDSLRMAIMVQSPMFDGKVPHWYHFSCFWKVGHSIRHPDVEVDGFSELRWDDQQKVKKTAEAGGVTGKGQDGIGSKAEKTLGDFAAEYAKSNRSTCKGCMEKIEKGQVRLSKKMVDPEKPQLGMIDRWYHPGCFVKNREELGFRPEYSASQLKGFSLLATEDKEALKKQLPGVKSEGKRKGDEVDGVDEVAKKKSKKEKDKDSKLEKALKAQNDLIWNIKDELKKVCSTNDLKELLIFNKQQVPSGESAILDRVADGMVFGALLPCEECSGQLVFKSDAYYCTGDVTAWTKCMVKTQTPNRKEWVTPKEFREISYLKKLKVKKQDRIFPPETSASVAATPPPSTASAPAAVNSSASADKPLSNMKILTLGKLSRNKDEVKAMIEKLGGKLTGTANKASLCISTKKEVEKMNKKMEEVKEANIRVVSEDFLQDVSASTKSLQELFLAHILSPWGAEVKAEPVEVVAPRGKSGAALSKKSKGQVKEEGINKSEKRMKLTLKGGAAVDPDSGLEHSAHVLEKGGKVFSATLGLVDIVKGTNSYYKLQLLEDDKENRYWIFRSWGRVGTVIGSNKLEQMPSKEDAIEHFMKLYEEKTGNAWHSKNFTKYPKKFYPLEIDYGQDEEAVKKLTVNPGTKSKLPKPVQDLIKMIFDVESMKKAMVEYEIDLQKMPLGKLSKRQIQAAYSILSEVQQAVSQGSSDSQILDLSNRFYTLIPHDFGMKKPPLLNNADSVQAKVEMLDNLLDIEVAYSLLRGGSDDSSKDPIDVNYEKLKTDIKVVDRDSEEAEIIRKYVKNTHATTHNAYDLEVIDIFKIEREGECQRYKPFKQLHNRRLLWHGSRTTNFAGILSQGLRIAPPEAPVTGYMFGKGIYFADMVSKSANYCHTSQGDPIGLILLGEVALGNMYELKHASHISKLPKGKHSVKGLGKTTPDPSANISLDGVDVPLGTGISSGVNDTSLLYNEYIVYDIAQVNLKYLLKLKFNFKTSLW

Key:
PARP1 (Homo sapiens) = PARP1 (Homo sapiens) (UniProt P09874); assay: BLI; settings: BLI: 1x PBS pH 7.4, 25 °C, SAX biosensors, biotinylated oligo loaded at 2 uM, PARP1 2.5-162 nM, recombinant protein, label: 5'-biotin
[1] = biological target: PARP1 (G01 lysate) (Homo sapiens (G01 glioblastoma cell culture)) (UniProt P09874); assay: pull-down + LC-MS; settings: RNase A treated, Pull-down: 25 mM Tris-HCl pH 7.4, 150 mM NaCl, 1 mM EDTA, 1% NP-40, 5% glycerol, 0.1 mM DTT, room temperature, protein in an extract, label: biotin

CATTTAGGACCAACACAA [SS-DNA control]
binding result (PARP1 (Homo sapiens); 0.1 mg/mL salmon sperm DNA, signal completely disappeared, single-stranded DNA): no binding | binding result (PARP1 (Homo sapiens); no competitor, amplitude about 1 versus 8 for bi-(AID-1-T), signal from 20 nM PARP1, single-stranded DNA): binds more weakly

GCCGGCATTTTGACGCCGCCCCGGCTGCTTATGCTCCGGGGCATATGGC [DS-DNA control (hairpin)]
binding result (PARP1 (Homo sapiens); 0.1 mg/mL salmon sperm DNA, signal significantly reduced, folded or branched DNA): binds more weakly | binding result (PARP1 (Homo sapiens); no competitor, amplitude about 8, signal from 20 nM PARP1, folded or branched DNA): binds

GGACGGGGATTTAATCGCCGTAGTAGAAAAGCATGTCAAAAGCCGGAACCGTCC [pull-down control oligonucleotide]
binding result ([1]; single-stranded DNA): no binding

GGGTGGTGGGTGGTGGTGGTGGTGGTGGTGGTGGTGGTGGTGGTGGTGGTGGTGGTGGG [bi-(AID-1-T) as printed in pull-down methods]
binding result ([1]; folded or branched DNA): binds

For part of these data: At least one result comes from cells or an extract, where the contact may be indirect. A negative result means that nothing was seen under these conditions. For part of these data: At least one verdict rests on a figure or table, not on a statement of the authors. For at least one entry, the source does not settle the construct or the ends of the probe. For part of these data: Weaker means in comparison with the reference protein, sequence or condition of that experiment.
